For assay [1], the target named is T1, truncated DRC4, amino acids 1-258 deleted (mouse) (UniProt Q60779).
T1 sequence: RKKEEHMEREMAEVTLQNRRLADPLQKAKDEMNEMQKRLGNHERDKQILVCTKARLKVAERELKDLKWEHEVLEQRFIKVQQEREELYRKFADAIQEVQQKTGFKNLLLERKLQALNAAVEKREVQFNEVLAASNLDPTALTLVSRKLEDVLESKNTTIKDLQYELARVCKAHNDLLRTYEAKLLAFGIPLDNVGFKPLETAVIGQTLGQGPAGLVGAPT
The experiment in a line: co-IP; HEK293T cells transfected with HA/FLAG plasmids, RIPA lysate, protein A/G magnetic beads with HA antibody overnight at 4 °C, five washes with RIPA.

Assay [2] concerns the target T2, DRC4, full length, HA- or FLAG-tagged (pCAG) (mouse) (UniProt Q60779).
T2 sequence: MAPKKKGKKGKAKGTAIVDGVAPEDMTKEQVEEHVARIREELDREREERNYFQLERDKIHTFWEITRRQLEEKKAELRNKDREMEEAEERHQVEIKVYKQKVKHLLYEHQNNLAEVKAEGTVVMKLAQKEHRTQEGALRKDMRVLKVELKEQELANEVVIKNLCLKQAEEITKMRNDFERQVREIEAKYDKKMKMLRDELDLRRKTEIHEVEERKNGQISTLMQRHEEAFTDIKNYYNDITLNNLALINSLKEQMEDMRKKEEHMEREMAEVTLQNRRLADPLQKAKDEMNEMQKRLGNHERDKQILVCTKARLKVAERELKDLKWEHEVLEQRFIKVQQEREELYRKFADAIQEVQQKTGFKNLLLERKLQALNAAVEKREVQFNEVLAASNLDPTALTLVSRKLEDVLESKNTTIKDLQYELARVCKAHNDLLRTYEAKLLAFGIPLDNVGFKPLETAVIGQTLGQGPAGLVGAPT
The description is as above.

These are yes or no findings as the source states them, for the method shown. In cells and extracts the contact can be indirect. Some results given as binding are weak or reduced against the parent protein; the word gives no strength. Where a sequence is shown, tags or fusion partners need not be part of it.

B1: AKAP3, HA- or FLAG-tagged (pCAG) (protein, UniProt O88987 1-864)
chain: MADRVDWLQSQSGVCKVGVYSPGDNQHQDWKMDTSTDPVRVLSWLRKDLEKSTAGFQDSRFKPGESSFVEEVAYPVDQRKGFCVDYYNTTNKGSPGRLHFEMSHKENPSQGLISHVGNGGSIDEVSFYANRLTNLVIAMARKEINEKIHGAENKCVHQSLYMGDEPTPHKSLSTVASELVNETVTACSKNISSDKAPGSGDRASGSSQAPGLRYTSTLKIKESTKEGKCPDDKPGTKKSFFYKEVFESRNAGDAKEGGRSLPGDQKLFRTSPDNRPDDFSNSISQGIMTYANSVVSDMMVSIMKTLKIQVKDTTIATILLKKVLMKHAKEVVSDLIDSFMKNLHGVTGSLMTDTDFVSAVKRSFFSHGSQKATDIMDAMLGKLYNVMFAKKFPENIRRARDKSESYSLISTKSRAGDPKLSNLNFAMKSESKLKENLFSTCKLEKEKTCAETLGEHIIKEGLHMWHKSQQKSPGLERAAKLGNAPQEVSFECPDPCEANPPHQPQPPENFANFMCDSDSWAKDLIVSALLLIQYHLAQGGKMDAQSFLEAAASTNFPTNKPPPPSPVVQDECKLKSPPHKICDQEQTEKKDLMSVIFNFIRNLLSETIFKSSRNCESNVHEQNTQEEEIHPCERPKTPCERPITPPAPKFCEDEEATGGALSGLTKMVANQLDNCMNGQMVEHLMDSVMKLCLIIAKSCDSPLSELGEEKCGDASRPNSAFPDNLYECLPVKGTGTAEALLQNAYLTIHNELRGLSGQPPEGCEIPKVIVSNHNLADTVQNKQLQAVLQWVAASELNVPILYFAGDDEGIQEKLLQLSATAVEKGRSVGEVLQSVLRYEKERQLDEAVGNVTRLQLLDWLMANL
Take B1: the figures for the binding entry in assay [1] and in assay [2] were “no binding” and “binds”, respectively.

Source of the values: PMC11910659.
